Taken from: PubChem BioAssay AID1259308 (NCATS, 2017)
In all, the deposit lists about 59,000 reagents; this is a random part of them. Of all reagents, about 1,510 (2.6%) got an active call. 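Calls use total luciferase alone and ignore viability, so some active siRNAs may act by altering cell number.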 A number with no mark means an inactive call. The numbers tell different reagents against one gene apart. Reagent sequences are not shown.

Purpose: 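Genes whose loss raises luciferase production in HEK293 cells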 (primary screen)
System: human HEK293 embryonic kidney cells stably expressing firefly luciferase (HEK-CMV-Luc2-Hygro)
Reagents: single siRNA against human genes, 0.8 pmol siRNA per well
Timing: 72 h
Measured: 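Luciferase light (ONE-Glo) measured on one replicate plate set and viability (CellTiter-Glo) on the other, scaled to a negative control siRNA, with robust z-scores and luciferase per cell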
Reading the numbers: total luciferase, z-score and total luciferase, % of control: higher = more reporter protein produced; luciferase per cell, z-score: higher = more reporter output per viable cell; viable cells, % of control: higher = more viable cells
Call rule: 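An siRNA counts as active if its total luciferase robust z-score exceeds 3; genes with two or more such siRNAs out of three were retested with fresh siRNAs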
Meaning of the calls: active = raised luciferase; inactive = no rise

target gene | reagent no. | total luciferase, z-score | total luciferase, % of control | luciferase per cell, z-score | viable cells, % of control
ITLN2 | 1 | -0.388 | 74.2 | -0.553 | 95.9
ITLN2 | 2 | -0.62 | 69.5 | -0.482 | 88.2
ITLN2 | 3 | 1.2 | 106 | 0.8 | 95.7
KLF3 | 1 | -1.21 | 57.9 | 0.853 | 51.7
KLF3 | 2 | -0.552 | 70.9 | -0.851 | 99.1
KLF3 | 3 | -1.35 | 55 | -0.0972 | 63
RPL27 | 1 | -2.38 | 34.5 | -2.3 | 70.7
RPL27 | 2 | -2.18 | 38.5 | -1.23 | 59.4
RPL27 | 3 | -2.66 | 29 | -1.53 | 48.4
VAMP3 | 1 | 0.561 | 93.1 | 0.215 | 98.3
VAMP3 | 2 | 1.98 | 121 | 1.77 | 84.9
VAMP3 | 3 | -0.645 | 69.1 | -0.425 | 86.3
ADAR | 1 | -0.746 | 67 | -0.122 | 77.4
ADAR | 2 | -0.384 | 74.3 | -0.721 | 100
ADAR | 3 | -1.28 | 56.5 | -1.9 | 104
CHGB | 1 | -2.16 | 38.9 | -2.77 | 90
CHGB | 2 | -0.101 | 79.9 | 0.131 | 86.2
CHGB | 3 | -1.49 | 52.3 | -1.05 | 77.1
LOC646804 | 1 | 0.183 | 85.5 | -0.0925 | 97.9
LOC646804 | 2 | 0.339 | 88.6 | 0.129 | 95.7
LOC646804 | 3 | 1.55 | 113 | 1.03 | 96
TMEM100 | 1 | -0.64 | 69.2 | 0.331 | 70.8
TMEM100 | 2 | -0.889 | 64.2 | -1.47 | 106
TMEM100 | 3 | -0.41 | 73.7 | -0.774 | 101
C6orf52 | 1 | 0.202 | 85.9 | -0.607 | 113
C6orf52 | 2 | 1.11 | 104 | 1.13 | 86.3
C6orf52 | 3 | -1.4 | 54 | -1.43 | 87.9
C4orf17 | 1 | 0.894 | 99.7 | 1.08 | 83.9
C4orf17 | 2 | 0.196 | 85.8 | 0.0514 | 94.6
C4orf17 | 3 | 1.21 | 106 | 1.53 | 79
TBC1D28 | 1 | -0.0788 | 80.3 | 0.0401 | 88.8
TBC1D28 | 2 | -1.51 | 51.8 | -0.832 | 72.1
TBC1D28 | 3 | 0.785 | 97.5 | 0.953 | 84.8
CHFR | 1 | 0.0342 | 82.6 | -0.0989 | 94.7
CHFR | 2 | -0.0607 | 80.7 | 0.411 | 80.9
CHFR | 3 | 2.26 | 127 | 1.33 | 100
SYT4 | 1 | 0.037 | 82.6 | 0.14 | 89
SYT4 | 2 | 2.25 | 127 | 1.94 | 84.9
SYT4 | 3 | -0.973 | 62.5 | -0.828 | 86.9
UQCC6 | 1 | 1.81 | 118 | 1.34 | 92.5
UQCC6 | 2 | -0.131 | 79.3 | -0.0532 | 89.8
UQCC6 | 3 | -0.394 | 74 | -0.252 | 88.4
ZNF197 | 1 | -0.319 | 75.5 | -0.176 | 88.4
ZNF197 | 2 | -0.893 | 64.1 | -0.932 | 91.6
ZNF197 | 3 | 0.387 | 89.6 | 2.22 | 55.8
C1QL4 | 1 | 0.368 | 89.2 | 1.12 | 74.2
C1QL4 | 2 | 0.0493 | 82.9 | 0.82 | 74.6
C1QL4 | 3 | -0.866 | 64.7 | -1.84 | 117
IFT22 | 1 | -1.16 | 58.7 | 0.304 | 60.6
IFT22 | 2 | 1.73 | 116 | 0.885 | 103
IFT22 | 3 | -1.06 | 60.8 | -0.178 | 71.2
REG4 | 1 | 0.221 | 86.3 | 0.0289 | 95.7
REG4 | 2 | 0.0192 | 82.3 | -0.174 | 96.2
REG4 | 3 | 0.381 | 89.5 | -0.146 | 104
THOC2 | 1 | -1.11 | 59.7 | -1.12 | 89.7
THOC2 | 2 | -0.825 | 65.5 | -0.674 | 87.4
THOC2 | 3 | -1.98 | 42.5 | -1.98 | 80
